PubChem BioAssay AID504764 | Drosophila RNAi Screening Center | 2011
Aim: 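Genes whose knock-down alters Notch-dependent transcription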 (primary screen). Cells: Drosophila Kc167 cells. Reagent: long dsRNA against Drosophila genes. Timing: about 5 days (4 days dsRNA, then 24 h after transfection). Treatment: transfection of constitutively active membrane-tethered Notch lacking the extracellular domain, read 24 h later. Read-out: 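Firefly luciferase from an E(spl)m3 reporter with active Notch, plus control-promoter and uninduced reporter wells for normalisation; unnormalised counts, duplicate wells a and b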. Direction: induced reporter light, run 1, well a and induced reporter light, run 1, well b: higher = more light from the Notch target reporter with active Notch; control promoter light, run 1, well a and control promoter light, run 1, well b: higher = more light from the viral control promoter (cell number, transfection, viability); uninduced reporter light, run 1, well a: higher = more light from the Notch target reporter without active Notch. Hit rule: 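Wells with low control signal or poorly matching duplicates excluded; duplicates averaged; per source plate, z beyond ±2 for induced/control log2 ratio or beyond ±1.8 for induced/uninduced marks a hit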. Calls: active = modifier hit (raised or lowered Notch signal); inactive = not a hit.
The screen tested about 22,000 reagents; shown is an unselected part of those that have a named target and a result. Over the whole deposit, 403 (1.9%) got an active call. 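Unnormalised raw counts per well; ratio z-scores behind the hit calls and whether each hit raises or lowers signal are not deposited.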 Reagents against one gene are numbered here. Not given: the amount of reagent.

Mec2 → induced reporter light, run 1, well a: 1.26e5; induced reporter light, run 1, well b: 1.21e5; control promoter light, run 1, well a: 96975; control promoter light, run 1, well b: 69790; uninduced reporter light, run 1, well a: 9465; Call: inactive
CG32708 → induced reporter light, run 1, well a: 45395; induced reporter light, run 1, well b: 51075; control promoter light, run 1, well a: 42555; control promoter light, run 1, well b: 61095; uninduced reporter light, run 1, well a: 4200; Call: inactive
CG9853 → induced reporter light, run 1, well a: 94660; induced reporter light, run 1, well b: 1.29e5; control promoter light, run 1, well a: 79270; control promoter light, run 1, well b: 65535; uninduced reporter light, run 1, well a: 8110; Call: inactive
CG8180 #1 → induced reporter light, run 1, well a: 56085; induced reporter light, run 1, well b: 64185; control promoter light, run 1, well a: 85665; control promoter light, run 1, well b: 1.03e5; uninduced reporter light, run 1, well a: 5850; Call: inactive
CG8180 #2 → induced reporter light, run 1, well a: 86060; induced reporter light, run 1, well b: 77625; control promoter light, run 1, well a: 54815; control promoter light, run 1, well b: 42670; uninduced reporter light, run 1, well a: 8155; Call: inactive
CG31937 → induced reporter light, run 1, well a: 1.04e5; induced reporter light, run 1, well b: 1.17e5; control promoter light, run 1, well a: 1.23e5; control promoter light, run 1, well b: 1.15e5; uninduced reporter light, run 1, well a: 8365; Call: inactive
CG6791 → induced reporter light, run 1, well a: 1.53e5; induced reporter light, run 1, well b: 1.65e5; control promoter light, run 1, well a: 1.63e5; control promoter light, run 1, well b: 1.28e5; uninduced reporter light, run 1, well a: 12285; Call: inactive
CG32354 #1 → induced reporter light, run 1, well a: 1.15e5; induced reporter light, run 1, well b: 1.05e5; control promoter light, run 1, well a: 77110; control promoter light, run 1, well b: 23810; uninduced reporter light, run 1, well a: 9575; Call: inactive
CG32354 #2 → induced reporter light, run 1, well a: 2.16e5; induced reporter light, run 1, well b: 1.95e5; control promoter light, run 1, well a: 1.89e5; control promoter light, run 1, well b: 1.79e5; uninduced reporter light, run 1, well a: 10300; Call: inactive
Task6 → induced reporter light, run 1, well a: 1.79e5; induced reporter light, run 1, well b: 2.20e5; control promoter light, run 1, well a: 2.03e5; control promoter light, run 1, well b: 1.89e5; uninduced reporter light, run 1, well a: 15750; Call: inactive
fd19B → induced reporter light, run 1, well a: 78480; induced reporter light, run 1, well b: 78770; control promoter light, run 1, well a: 97355; control promoter light, run 1, well b: 1.29e5; uninduced reporter light, run 1, well a: 9445; Call: inactive
Cp36 → induced reporter light, run 1, well a: 1.35e5; induced reporter light, run 1, well b: 1.35e5; control promoter light, run 1, well a: 2.38e5; control promoter light, run 1, well b: 3.11e5; uninduced reporter light, run 1, well a: 11075; Call: inactive
PK2-R1 → induced reporter light, run 1, well a: 1.93e5; induced reporter light, run 1, well b: 2.00e5; control promoter light, run 1, well a: 1.92e5; control promoter light, run 1, well b: 2.13e5; uninduced reporter light, run 1, well a: 15270; Call: inactive
CG7888 → induced reporter light, run 1, well a: 1.13e5; induced reporter light, run 1, well b: 79090; control promoter light, run 1, well a: 74000; control promoter light, run 1, well b: 27495; uninduced reporter light, run 1, well a: 10440; Call: inactive
rdgBbeta → induced reporter light, run 1, well a: 1.12e5; induced reporter light, run 1, well b: 78355; control promoter light, run 1, well a: 1.50e5; control promoter light, run 1, well b: 1.37e5; uninduced reporter light, run 1, well a: 9810; Call: inactive
CG31266 → induced reporter light, run 1, well a: 2.90e5; induced reporter light, run 1, well b: 2.66e5; control promoter light, run 1, well a: 2.70e5; control promoter light, run 1, well b: 2.75e5; uninduced reporter light, run 1, well a: 21110; Call: inactive
CaBP1 → induced reporter light, run 1, well a: 1.99e5; induced reporter light, run 1, well b: 2.34e5; control promoter light, run 1, well a: 1.96e5; control promoter light, run 1, well b: 1.85e5; uninduced reporter light, run 1, well a: 17670; Call: inactive
Mtap → induced reporter light, run 1, well a: 77840; induced reporter light, run 1, well b: 87855; control promoter light, run 1, well a: 1.15e5; control promoter light, run 1, well b: 1.31e5; uninduced reporter light, run 1, well a: 7775; Call: inactive

No new results follow: entries from further up.
CG8180 #2 → induced reporter light, run 1, well a: 86060; induced reporter light, run 1, well b: 77625; control promoter light, run 1, well a: 54815; control promoter light, run 1, well b: 42670; uninduced reporter light, run 1, well a: 8155; Call: inactive
CG31937 → induced reporter light, run 1, well a: 1.04e5; induced reporter light, run 1, well b: 1.17e5; control promoter light, run 1, well a: 1.23e5; control promoter light, run 1, well b: 1.15e5; uninduced reporter light, run 1, well a: 8365; Call: inactive
